This note sets out measurements from article doi:10.1101/2025.01.13.632879.

These are yes or no findings as the source states them, for the method shown.

This experiment has as its target Escherichia coli LolA (wild type) (Escherichia coli) (UniProt P61316). In words: SEC. In general terms: In gel filtration, larger molecules generally elute earlier.

B1: Escherichia coli LolA (wild type) (protein, UniProt P61316 22-203)
chain: DAASDLKSRLDKVSSFHASFTQKVTDGSGAAVQEGQGDLWVKRPNLFNWHMTQPDESILVSDGKTLWFYNPFVEQATATWLKDATGNTPFMLIARNQSSDWQQYNIKQNGDDFVLTPKASNGNLKQFTINVGRDGTIHQFSAVEQDDQRSSYQLKSQQNGAVDAAKFTFTPPQGVTVDDQRK
As for B1, the binding entry was “no binding (tested: 10 mg/mL loaded)”.
